The other results are listed elsewhere or left out. The main result of the screen is listed elsewhere. These columns were measured beside it and carry no call. Most of these compounds were active or inconclusive in the main read-out, so they are no random draw. Potencies come from curve fits of mixed quality, noted in brackets.
Assay: qHTS Assay for Lipid Storage Modulators in Drosophila S3 Cells;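 for cell number change: cells counted by Cell Tracker Red CMTPX staining in the red channel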
Conditions: BODIPY lipid droplet fluorescence, 18-24 h; for cell number change: measured here: cell count max response, cells fed with added oleic acid
Procedure, shortened: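 Drosophila S3 cells got compounds at several concentrations plus oleic acid (400 uM solution). Laser-scanning cytometry with 488 nm excitation read lipid droplets at 500-530 nm and cells at 575-640 nm. Percent activity was relative to 20 uM Triacsin C.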

[1] = measured here: lipid fluorescence (Fed channel) AC50, cells fed with added oleic acid
[2] = measured here: cell number channel AC50, cells fed with added oleic acid

SMILES	cell number change [%]	AC50 [1]	AC50 [2]
O=C(CCC1CCCNC1)c1ccccc1 (centres undefined)	-13.2	–	–
COC(=O)Cc1c(C)nc2nc(Cc3ccccc3)[nH]n2c1=O	6.61	0.411 µM [falling, full curve]	–
O=C(N/N=C/c1c(O)ccc2ccccc12)c1cccnc1	-17	6.51 µM [falling, single point]	–
Cc1cccc(N(CC(=O)NCCc2ccccc2)C(=O)c2csnn2)c1	-7.98	–	–
C=CCNC(=O)CSc1nc2sccc2c(=O)n1-c1ccccc1	2.5	1.03 µM [rising, full curve]	–
Cc1cc2nc3n(c2cc1C)CC1CC(C(=O)NCc2ccccc2)N(C)C31 (centres undefined)	22.7	32.6 µM [rising, single point]	–
Cn1nnnc1SCC(=O)NC(C)(C)C	-11.3	29.1 µM [rising, single point]	–
CCN(CC)S(=O)(=O)c1cc(Cl)ccc1OC	-19.2	–	–
O=C(c1ccc2nc(N3CCOCC3)sc2c1)N1CCC(Cc2ccccc2)CC1	108	–	23.1 µM [rising, single point]
CCCCn1c(N)c(N(CC)C(=O)CSCc2ccc(C)cc2)c(=O)[nH]c1=O	0.926	35.5 µM [falling, single point]	–
CC(C)Cc1cc(C(=O)Nc2c(F)cc(F)cc2Br)no1	-43.2	5.17 µM [falling, full curve]	18.4 µM [falling, single point]
CCOCCSc1nc2c(c(=O)[nH]c(=O)n2C)n1CCCc1ccccc1	10.5	–	3.66 µM [rising, single point]
Cc1nc(SCC(=O)NCc2ccc3c(c2)OCO3)c(C#N)c2c1CCCC2	-21.9	–	–
Cn1c(=O)n(C)c2cc([N+](=O)[O-])c(N3CCN(C(=O)c4cccc(F)c4)CC3)cc21	-3.18	–	–
Cc1ccc(-c2nc3ccccc3c(=O)n2CCCn2ccnc2)cc1	-7.22	0.13 µM [falling, full curve, poor fit]	–
COc1ccc2sc(NCc3ccccc3)nc2c1	1.53	29.1 µM [rising, single point]	–

SMILES	cell number change [%]	AC50 [1]	AC50 [2]
COc1ccc(NC(=O)CCC(=O)N2CCN(S(=O)(=O)c3ccc(C)cc3)CC2)c(OC)c1	-85.5	–	3.66 µM [rising, single point]
COc1cc(NC(=O)CSc2nnc(-c3ccncc3)o2)cc(OC)c1OC	18.2	11.6 µM [rising, partial curve]	–
CCCCCCn1nc(C(=O)N(CC(C)C)c2c(N)n(CCCC)c(=O)[nH]c2=O)c2ccccc2c1=O	-46.4	16.4 µM [falling, partial curve, poor fit]	29.1 µM [falling, single point]
Cc1cnn(C(=O)c2ccccc2Br)c1	8.07	20.6 µM [falling, single point]	–
CN(Cc1cn(C)nc1-c1cccc(Cl)c1)Cc1nccn1C	26.6	3.66 µM [rising, single point]	–
Cc1ccccc1OCC(=O)OCC(=O)c1cc(C)n(C2CC2)c1C	–	0.231 µM [rising, full curve, poor fit]	–
Cc1ccccc1NC(=O)c1ccc2c(c1)N(C)CCS2	2.31	3.26 µM [falling, single point]	–
O=C(COC(=O)C1CC2C=CC1C2)Nc1ccc2c(c1)OC(F)(F)O2 (centres undefined)	-42.6	11.6 µM [falling, partial curve]	10.3 µM [falling, partial curve]
C=CCNC(=S)NNC(=O)C(CCCC)CC(C)O (centres undefined)	–	25.9 µM [falling, partial curve]	–
O=C(Nc1ccc(Cl)c(Cl)c1)OCc1cccnc1	98.7	5.17 µM [rising, partial curve]	7.31 µM [rising, partial curve]
Cc1ccc(C(=O)N(CC(=O)NC2CCCCC2)c2ccccc2F)s1	-13.2	5.17 µM [falling, full curve]	–
O=C(NCCc1ccccn1)c1ccc(OC2CCN(CCc3ccccc3)CC2)cc1	53.3	–	23.1 µM [rising, partial curve, poor fit]
Cc1ccc(-c2nnn(CC(=O)Nc3ccccc3N3CCOCC3)n2)cc1	14.2	0.326 µM [rising, full curve]	0.146 µM [rising, full curve]
COc1ccc(C(=O)O/N=C(\N)c2ccccn2)cc1[N+](=O)[O-]	-16.1	–	–
O=C1CSC(c2cn(-c3ccccc3)nc2-c2cccs2)N1CC1CCCO1 (centres undefined)	–	3.26 µM [rising, partial curve]	2.59 µM [rising, partial curve]

One compound at a time, from the list above.
CN(Cc1cn(C)nc1-c1cccc(Cl)c1)Cc1nccn1C as listed: cell number change [%]: 26.6; AC50 [1]: 3.66 µM [rising, single point]
COc1cc(NC(=O)CSc2nnc(-c3ccncc3)o2)cc(OC)c1OC as listed: cell number change [%]: 18.2; AC50 [1]: 11.6 µM [rising, partial curve]

— PubChem BioAssay AID2685 (National Center for Advancing Translational Sciences (NCATS), 2010)
